One substance from paper PMC9283456 can be followed below.

By UniProt entry, the sequences of proteins in these tests, tags left out. Where a name states a change or a piece, a line headed by the entry shows the natural chain unless it says otherwise.
UniProt P05556: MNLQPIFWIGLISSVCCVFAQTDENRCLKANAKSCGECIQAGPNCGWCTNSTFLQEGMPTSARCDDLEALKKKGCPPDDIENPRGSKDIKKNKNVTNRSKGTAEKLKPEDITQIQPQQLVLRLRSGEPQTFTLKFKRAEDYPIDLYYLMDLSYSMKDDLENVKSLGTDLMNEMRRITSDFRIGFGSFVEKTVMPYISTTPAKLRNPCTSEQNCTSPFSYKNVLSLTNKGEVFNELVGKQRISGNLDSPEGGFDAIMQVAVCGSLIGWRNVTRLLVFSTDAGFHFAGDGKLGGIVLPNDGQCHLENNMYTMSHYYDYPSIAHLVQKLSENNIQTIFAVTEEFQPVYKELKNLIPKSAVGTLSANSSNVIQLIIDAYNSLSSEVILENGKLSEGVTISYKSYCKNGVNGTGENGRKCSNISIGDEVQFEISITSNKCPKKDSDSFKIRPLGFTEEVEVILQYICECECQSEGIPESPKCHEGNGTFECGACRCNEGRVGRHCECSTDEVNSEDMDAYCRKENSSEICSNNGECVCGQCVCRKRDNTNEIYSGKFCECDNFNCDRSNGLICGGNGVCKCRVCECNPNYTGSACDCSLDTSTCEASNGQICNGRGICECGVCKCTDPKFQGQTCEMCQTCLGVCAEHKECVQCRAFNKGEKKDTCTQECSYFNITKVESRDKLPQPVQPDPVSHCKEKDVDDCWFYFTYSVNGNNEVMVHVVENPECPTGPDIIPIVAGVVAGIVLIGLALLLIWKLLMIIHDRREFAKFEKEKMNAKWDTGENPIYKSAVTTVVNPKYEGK

No constants are given. Whether binding was seen depends on the method and setting. Binding seen in cells or lysates may run through a third protein. Some binding calls cover weakened binding; strength is not graded here.

Assay [1] has as its target T1, Transmembrane-4 L-six family member-1 (TM4SF1), endogenous (human (endogenous in Eca109 and ESCC patient tissue)) (UniProt P30408).
T1 sequence: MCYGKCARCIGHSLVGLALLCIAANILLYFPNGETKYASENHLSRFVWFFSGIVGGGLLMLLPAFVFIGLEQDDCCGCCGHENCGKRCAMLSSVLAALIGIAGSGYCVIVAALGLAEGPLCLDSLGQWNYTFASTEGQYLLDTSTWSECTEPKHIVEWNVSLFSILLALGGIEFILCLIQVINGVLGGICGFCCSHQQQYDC
The assay is described as follows: co-IP; endogenous TM4SF1 immunoprecipitated with anti-TM4SF1 antibody and protein-A/G PLUS beads from Eca109 cells cultured with or without laminin-coating; 0.1% Triton TBS (20 mM Tris-HCl pH 7.4, 150 mM NaCl), 4 °C; blots for integrin α6, β4, β1.

Assay [2] concerns the target T1, Transmembrane-4 L-six family member-1 (TM4SF1), endogenous (human (endogenous in Eca109 and ESCC patient tissue)). Put plainly: co-IP; endogenous TM4SF1 immunoprecipitated with anti-TM4SF1 antibody and protein-A/G PLUS beads from homogenized ESCC patient tissue lysate; 0.1% Triton TBS (20 mM Tris-HCl pH 7.4, 150 mM NaCl), 4 °C; blots for integrin α6, β4, β1.

With “integrin β1 (from UniProt P05556 21-798) (receptor)”, the binding entry in assay [1] and in assay [2] was “binds” in each case.
